Measurements published in article PMC10175245.
No constants are given. Whether binding was seen depends on the method and setting. In cells and extracts the contact can be indirect. Some binding calls cover weakened binding; strength is not graded here.

By UniProt entry, the sequences of proteins in these tests, tags left out.
UniProt Q64373: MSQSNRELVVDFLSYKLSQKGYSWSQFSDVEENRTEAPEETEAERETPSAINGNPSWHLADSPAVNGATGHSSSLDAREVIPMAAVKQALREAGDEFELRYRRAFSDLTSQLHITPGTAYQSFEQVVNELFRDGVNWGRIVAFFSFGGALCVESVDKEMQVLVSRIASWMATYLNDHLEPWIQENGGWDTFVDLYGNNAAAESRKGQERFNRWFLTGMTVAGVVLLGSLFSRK
UniProt O88597: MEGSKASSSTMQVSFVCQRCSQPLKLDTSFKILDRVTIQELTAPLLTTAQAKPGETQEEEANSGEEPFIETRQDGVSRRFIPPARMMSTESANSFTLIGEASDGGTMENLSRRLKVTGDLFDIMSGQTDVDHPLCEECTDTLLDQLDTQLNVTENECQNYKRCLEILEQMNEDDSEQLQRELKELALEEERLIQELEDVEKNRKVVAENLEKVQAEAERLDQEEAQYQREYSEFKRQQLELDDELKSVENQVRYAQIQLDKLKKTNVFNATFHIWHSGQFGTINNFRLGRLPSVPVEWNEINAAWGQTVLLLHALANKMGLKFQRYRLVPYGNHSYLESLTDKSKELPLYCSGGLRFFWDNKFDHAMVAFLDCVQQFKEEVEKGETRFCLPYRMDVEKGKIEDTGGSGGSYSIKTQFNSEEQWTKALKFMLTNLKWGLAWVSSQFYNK

T1: p19^ARF (mouse (endogenous in mouse beige adipocytes)) (UniProt Q64364)
T1 sequence: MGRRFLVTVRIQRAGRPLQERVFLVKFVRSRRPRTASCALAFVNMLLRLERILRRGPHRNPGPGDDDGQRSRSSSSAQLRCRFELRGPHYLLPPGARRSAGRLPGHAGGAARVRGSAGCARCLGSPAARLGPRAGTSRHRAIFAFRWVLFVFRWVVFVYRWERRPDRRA

T2: p16^INK4a (mouse (endogenous in mouse beige adipocytes)) (UniProt P51480)
T2 sequence: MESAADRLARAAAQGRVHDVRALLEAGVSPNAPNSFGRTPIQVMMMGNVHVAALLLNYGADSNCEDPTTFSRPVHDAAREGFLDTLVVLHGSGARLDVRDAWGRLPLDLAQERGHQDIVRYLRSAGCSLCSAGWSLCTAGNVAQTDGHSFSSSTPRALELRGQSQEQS


Legend:
Test in all cases: co-IP; Pierce crosslink magnetic IP/Co-IP kit; beige adipocyte lysate in IP lysis buffer incubated with Protein A magnetic beads conjugated with p16INK4a, p19ARF, BCL2L1 or IgG antibody at 4 °C overnight; eluted by heating in loading buffer, blotted; Fig. 7h in control and Cdkn2a^Ucp1 KO beige adipocytes after withdrawing external stimuli
[1] = target: T1, p19^ARF (mouse (endogenous in mouse beige adipocytes))
[2] = target: T2, p16^INK4a (mouse (endogenous in mouse beige adipocytes))
[3] = target: BCL2 like 1 (BCL2L1) (mouse (endogenous in mouse beige adipocytes)) (UniProt Q64373)

| binding [1] | binding [2] | binding [3] | Molecule |
| --- | --- | --- | --- |
| binds | no binding |  | BCL2 like 1 (BCL2L1) (from UniProt Q64373 1-233) |
| binds | no binding | binds | beclin 1 (BECN1) (from UniProt O88597 1-448) |
|  |  | binds | p19^ARF (protein, UniProt Q64364 1-169) MGRRFLVTVRIQRAGRPLQERVFLVKFVRSRRPRTASCALAFVNMLLRLERILRRGPHRNPGPGDDDGQRSRSSSSAQLRCRFELRGPHYLLPPGARRSAGRLPGHAGGAARVRGSAGCARCLGSPAARLGPRAGTSRHRAIFAFRWVLFVFRWVVFVYRWERRPDRRA |
